Reference: patent US12629415B2, “Vaccine adjuvants” (THE PROVOST, FELLOWS, FOUNDATION SCHOLARS, AND THE OTHER …, priority 2018, dated 2026)

Tested on: adult PBMCs or neonatal CBMCs
Test: HEK-Blue IFNα/β SEAP assay on supernatants of stimulated mononuclear cells
Type: cell-based, human
Conditions: neonatal CBMCs compared with adult PBMCs; stimulation 4, 8 or 24 h
Procedure: Isolation of mononuclear cells and monocytes—Primary PBMCs or CBMCs were isolated from healthy human blood or cord blood. Monocytes were isolated by negative selection using Monocyte Isolation Kit II (Miltenyi). […] Cells were cultured at 37° C., 5% CO2, 95% air in RPMI-1640, with stable 2.5 mM L-glutamine and 0.5 mM sodium pyruvate with 10% FBS (all from Sigma-Aldrich).
Poly(I:C) (5 μg/ml) (Invivogen), Poly(dA:dT) (5 μg/ml) (Sigma-Aldrich), 2′3′ cGAMP (10 μg/ml), 5′ triphosphate double stranded RNA (5′ ppp dsRNA) (2.5 μg/ml) and HSV-60 (2 μg/ml) (all from Invivogen) were transfected into PBMCs or CBMCs using TransIT-X2 (Mirus).
Measurement of cytokines—HEK Blue TNFα/IFNα/β Assays were performed as per the manufacturer's (Invivogen) instructions using Quanti-Blue Detection Reagent. SEAP levels were determined using a spectrophotometer plate reader at 630 nm. IFNα (3425-1H-6, Mabtech) and IP-10 (DY266, R&D Systems) were detected by sandwich ELISA. IFNα ELISA used pan specific IFNα antibodies, which allows detection of IFNα subtypes 1/13, 2, 4, 5, 6, 7, 8, 10, 14, 16 and 17. BioLegend LEGENDplex™ Human Inflammation Panel (13-plex) was carried out as per manufacturer's (Biolegend) instructions to determine levels of IFNγ, IL-10, IL-12p70 and IL-23. A BD LSR Fortessa cell analyser was used to acquire samples and BioLegend LEGENDplex™ software was used for analysis.

CCCc1nc2c(N)nc3ccccc3c2s1 [CL075, reference compound]
type I IFN (IFNα/β) production: significantly lower levels of IFNα/β production from CBMCs compared with PBMCs
